Reference: PubChem BioAssay AID540276 (National Center for Advancing Translational Sciences (NCATS), 2011)
Hit rate of the full screen: of about 300,000 compounds, about 5,400 (1.8%) were called active. The shares of active, inactive and inconclusive entries below differ from those in the screen. Calls come from the whole dose curve; tested in HEK293 cells. Potencies beside an inconclusive call are fits to weak or partial responses and may not hold up.

Test: qHTS for inhibitors of binding or entry into cells for Marburg Virus
Conditions: Marburg virus pseudotyped entry inhibition, cell reporter; activity change, negative = inhibition: at 37.8 µM (top of the series) unless noted
% is set by controls: 0 for no effect and ±100 for the full control effect; potency is the fitted concentration of half-maximal effect.

Row | SMILES | Potency | activity change, negative = inhibition
1 | COC(=O)c1cccc(NC(=O)/C=C/c2ccc3c(c2)OCO3)c1 | inconclusive: 7.94 µM [inhibitor, partial curve, poor fit] | –
2 | COc1ccccc1C1C=C(c2ccc(F)cc2)Nc2nc(-c3ccc(Cl)cc3)nn21 (stereo unspecified) | inconclusive: 15.8 µM [inhibitor, single point] | –
3 | C=CCn1c(COc2ccc(F)cc2)nnc1SCC(=O)N1CC(=O)Nc2ccccc21 | – | inactive: 7.54%
4 | Cc1ccc(C)c(OCCCNC2CCCC2)c1C | inconclusive: 22.4 µM [inhibitor, single point] | –
5 | O=C(CN(C1CCCCC1)S(=O)(=O)c1ccccc1)NCc1cccnc1 | – | inactive: -3.68%
6 | C=CCNCCCCOc1ccccc1-c1ccccc1 | inconclusive: 23.1 µM [inhibitor, partial curve, poor fit] | –
7 | Cn1cc(C(=O)Nc2ccc(Cl)c(Cl)c2)cn1 | inconclusive: 10 µM [activator, partial curve, poor fit] | –
8 | Oc1[nH]c2ccccc2c1N=Nc1ccc(C(F)(F)F)cn1 | inconclusive: 4.47 µM [activator, full curve, poor fit] | –
9 | C/C(=N\NC(=O)c1cccc(S(=O)(=O)N2CCCC2)c1)c1ccc(C)cc1 | – | inactive: -15.1%
10 | CCOC(=O)C1CCCN(c2nc(C)nc3c2oc2ccccc23)C1 (stereo unspecified) | inconclusive: 8.2 µM [inhibitor, partial curve, poor fit] | –
11 | CC(=O)c1ccc(C(C)(C)c2ccc(C(C)=O)s2)s1 | – | inactive: 1.98%
12 | CCCNC(=O)OC[C@@H]1O[C@H](CCO/N=C2\c3cc(OC)ccc3O[C@H](c3cccc(OC)c3)[C@H]2O)C=C[C@@H]1Oc1ccc(OC)cc1 | inconclusive: 0.0094 µM [inhibitor, full curve, poor fit] | –
13 | CC(C)Cn1c(O)c(/C=C2\C=NN=C2c2ccccc2)sc1=S | inconclusive: 2.51 µM [inhibitor, partial curve, poor fit] | –
14 | CN(c1ccccc1)S(=O)(=O)c1cccc(NC(=O)c2ccc(Cl)c([N+](=O)[O-])c2)c1 | inconclusive: 12.6 µM [inhibitor, single point] | –
15 | O=C(Nc1cccs1)Nc1cc(C(F)(F)F)ccc1Cl | inconclusive: 25.1 µM [inhibitor, single point] | –
16 | CCOC(=O)c1c(-c2ccccc2)nc2ccc(Cl)cn12 | inconclusive: 9.2 µM [inhibitor, partial curve, poor fit] | –
17 | CC(=O)N1CCN(C(=O)CCc2nnc(CCCCc3ccccc3)o2)CC1 | – | inactive: -2.92% [at 46.1 µM]
18 | CCOc1ccc(OCCN2C(=O)NC(Cc3c[nH]c4ccccc34)C2=O)cc1 (stereo unspecified) | – | inactive: 17.7%
19 | CCOc1ccc(-n2c(Cc3ccccc3)nnc2SCc2nc(-c3ccccc3OC)no2)cc1 | inconclusive: 3.98 µM [activator, partial curve, poor fit] | –
20 | CCCc1cc(=O)[nH]c(SCc2cc(=O)oc3c(C)c(C)ccc23)n1 | inconclusive: 5.62 µM [inhibitor, single point] | –
21 | CC1=CC(C)(C)Nc2ccc(OC(=O)CCN3C(=O)c4ccccc4C3=O)cc21 | inconclusive: 14.1 µM [inhibitor, partial curve, poor fit] | –
22 | COc1cc(OC)cc(C(=O)Oc2c(Sc3ccccc3)c(C)nn2C(C)(C)C)c1 | inconclusive: 12.6 µM [inhibitor, partial curve, poor fit] | –

Row | SMILES | Potency | activity change, negative = inhibition
23 | CCc1ccc(C2c3c(-c4ccccc4O)n[nH]c3C(=O)N2Cc2ccncc2)cc1 (stereo unspecified) | inconclusive: 35.5 µM [inhibitor, single point] | –
24 | O=C(CSc1nnc(Nc2ccccc2)s1)NCc1cccs1 | – | inactive: 4.63%
25 | COc1ccccc1CCNC(=O)CCSc1nc(-c2ccco2)cc(C(F)(F)F)n1 | inconclusive: 3.55 µM [inhibitor, partial curve, poor fit] | –
26 | C/C(Cc1ccccc1)=N\NC(=O)c1ccc(F)cc1 | – | inactive: 4.5%
27 | Cc1ccc(CNC(=O)CSCc2cccc(F)c2)cc1 | – | inactive: 13.5% [at 46.1 µM]
28 | N#Cc1ccccc1OCCCNC1CCCC1 | inconclusive: 14.6 µM [inhibitor, partial curve, poor fit] | –
29 | CCNc1nc(Oc2ccccc2)nc(OC(C)C(=O)OCC)n1 (stereo unspecified) | – | inactive: -0.0469%
30 | CC(=O)Nc1ccc(C(=O)CSc2cc(C)c3cccc(C)c3n2)cc1 | inconclusive: 29.1 µM [inhibitor, partial curve, poor fit] | –
31 | COc1cc(-c2noc(CN3CCN(c4ccccc4)CC3)n2)cc(OC)c1OC | – | inactive: 20.8% [at 46.1 µM]
32 | CC1=CC(C)(C)N2C(=O)C3(NCCc4c3[nH]c3ccccc43)c3cccc1c32 (stereo unspecified) | inconclusive: 22.4 µM [inhibitor, partial curve, poor fit] | –
33 | O=C(c1ccc(C(F)(F)F)cc1)N1CCC(=O)N(C(COCc2ccc(Cl)cc2)Cc2ccccc2)CC1 (stereo unspecified) | inconclusive: 13 µM [inhibitor, partial curve, poor fit] | –
34 | Cc1ccc(S(=O)(=O)N(CCC(=O)NCc2ccc(S(N)(=O)=O)cc2)c2ccccc2)cc1 | inconclusive: 1.12 µM [inhibitor, partial curve, poor fit] | –
35 | O=C(CSc1nncn1-c1ccccc1)Nc1ccccc1 | – | inactive: 3.74%
36 | Cc1ccc2c(C)c(C(=O)N3CCN(c4ccncc4)CC3)oc2c1C | inconclusive: 15.8 µM [inhibitor, partial curve, poor fit] | –
37 | CC1CCN(C(=O)c2ccc3c(c2)NC(=O)/C(=C/c2ccccc2)S3)CC1 | inconclusive: 10 µM [inhibitor, partial curve, poor fit] | –
38 | Fc1ccc(NC(=S)Nc2cc(-c3ccccc3)[nH]n2)cc1Cl | inconclusive: 35.5 µM [inhibitor, single point] | –
39 | Cc1ccc(N(CC(=O)NCCc2ccc(Cl)cc2)S(=O)(=O)N(C)C)cc1 | inconclusive: 35.5 µM [inhibitor, single point] | –
40 | O=C(Cn1cc(COc2ccc(Br)cc2[N+](=O)[O-])nn1)c1ccc(O)cc1 | inconclusive: 0.112 µM [activator, full curve, poor fit] | –
41 | Cc1cc(C(=O)CN2C(=O)c3ccccc3C2=O)c(C)n1Cc1cccs1 | active: 6.51 µM | –
42 | CNC(C(=O)c1ccccc1)C(OC(C)=O)c1cccc([N+](=O)[O-])c1 (stereo unspecified) | – | inactive: 4.92%
43 | COc1cccc(OC)c1C(=O)Nc1nc2ccc(S(C)(=O)=O)cc2s1 | inconclusive: 39.8 µM [inhibitor, partial curve, poor fit] | –
44 | CCc1cccc(C)c1NC(=O)Cn1c(NCCO)nc2ccccc21 | – | inactive: 0.398%

Row | SMILES | Potency | activity change, negative = inhibition
45 | Cc1ccnc(NC(=O)c2cccc(NS(=O)(=O)c3ccccc3C)c2)c1 | inconclusive: 0.891 µM [activator, full curve, poor fit] | –
46 | O=C(CCSc1nc(-c2ccco2)cc(C(F)(F)F)n1)Nc1cccc(O)c1 | – | inactive: -3.06% [at 46.1 µM]
47 | Cc1ccccc1CN1CCN(C(=O)c2ccco2)CC1 | inconclusive: 20 µM [activator, single point] | –
48 | COc1cccc(NC(=O)CSc2nc3c(oc4ccccc43)c(=O)n2Cc2ccco2)c1 | – | inactive: -18.8% [at 46.1 µM]
49 | CC1CCCCN1C(=S)NCCc1ccccc1 (stereo unspecified) | inconclusive: 6.31 µM [activator, partial curve, poor fit] | –
50 | Cc1cc(C)nc(SCC(=O)N/N=C\C(Br)=C\c2ccccc2)n1 | – | inactive: -26.4%
51 | Cc1ccc(C)n1-c1nnc(N2CCCC(C(=O)NCc3ccc(Cl)cc3)C2)s1 (stereo unspecified) | – | inactive: 10.5% [at 46.1 µM]
52 | CC1CCN(C(=O)COC(=O)c2ccccc2NC(=O)c2ccco2)CC1 | inconclusive: 35.5 µM [inhibitor, single point] | –
53 | COc1ccc2cc(CN(CC3COCCO3)S(=O)(=O)c3ccccc3)c(=O)[nH]c2c1 (stereo unspecified) | inconclusive: 0.891 µM [inhibitor, full curve, poor fit] | –
54 | Cc1ccc(S(=O)(=O)N2CCN(C(=O)C3CCCO3)CC2)cc1C (stereo unspecified) | inconclusive: 5.62 µM [activator, single point] | –
55 | O=c1[nH]c(C2CCCN(S(=O)(=O)c3cccc(F)c3)C2)nc2c1nnn2Cc1ccccc1 (stereo unspecified) | – | inactive: -29.4% [at 46.1 µM]
56 | O=C(c1ccccc1)n1ccc(-c2cnc(-c3ccccc3)s2)n1 | inconclusive: 0.0891 µM [activator, full curve, poor fit] | –
57 | CCOC(=O)c1nc2ccccc2s1 | inconclusive: 35.5 µM [activator, single point] | –
58 | Cc1ccc(-c2nc3cc(C(C)C)ccc3o2)cc1NC(=O)c1cc2ccccc2o1 | – | inactive: 9.71% [at 46.1 µM]
59 | Cc1cccc(NC(=O)CCCn2c(C)c3cnn(-c4ccccc4)c(=O)c3c2C)c1C | – | inactive: 7.38% [at 46.1 µM]
60 | CCc1ccc(OCC(=O)N2c3ccccc3CCc3ccccc32)cc1 | inconclusive: 7.08 µM [inhibitor, partial curve, poor fit] | –
61 | O=C(NCC(=O)N(c1ccc(F)cc1)C(C(=O)NC1CCCC1)c1cccnc1)c1ccco1 (stereo unspecified) | – | inactive: 5.72% [at 46.1 µM]
62 | COc1ccc(CCN2C(=O)C(Oc3ccccc3C)C2c2ccc3c(c2)OCO3)cc1OC (stereo unspecified) | inconclusive: 14.1 µM [inhibitor, partial curve] | –
63 | O=C(c1cc(COc2c(F)cccc2F)on1)N1CCSCC1 | inconclusive: 35.5 µM [inhibitor, single point] | –
64 | CCN1C(=O)/C(=C2/Sc3ccccc3N2CCCS(=O)(=O)O)SC1=S | inconclusive: 35.5 µM [activator, single point] | –
65 | Cc1ccc(S(=O)(=O)c2c(N)n(NC(=O)c3ccccc3C)c3nc4ccccc4nc23)cc1 | inconclusive: 13 µM [inhibitor, single point] | –
66 | COc1cc(/C=N/NC(=O)c2csc3c2CCCC3)cc(OC)c1O | inconclusive: 2.82 µM [activator, partial curve, poor fit] | –

Pulled by compound from the entries so far, three records:
Row | SMILES | Potency | activity change, negative = inhibition
65 | Cc1ccc(S(=O)(=O)c2c(N)n(NC(=O)c3ccccc3C)c3nc4ccccc4nc23)cc1 | inconclusive: 13 µM [inhibitor, single point] | –
62 | COc1ccc(CCN2C(=O)C(Oc3ccccc3C)C2c2ccc3c(c2)OCO3)cc1OC (stereo unspecified) | inconclusive: 14.1 µM [inhibitor, partial curve] | –
45 | Cc1ccnc(NC(=O)c2cccc(NS(=O)(=O)c3ccccc3C)c2)c1 | inconclusive: 0.891 µM [activator, full curve, poor fit] | –
